Results reported in article PMC10348774.
No constants are given. Whether binding was seen depends on the method and setting. Binding seen in cells or lysates may run through a third protein. Some results given as binding are weak or reduced against the parent protein; the word gives no strength.

Amino acid sequences for entries named in this document (tags omitted). Residues count along the entry.
UniProt O14672, residues 20-748: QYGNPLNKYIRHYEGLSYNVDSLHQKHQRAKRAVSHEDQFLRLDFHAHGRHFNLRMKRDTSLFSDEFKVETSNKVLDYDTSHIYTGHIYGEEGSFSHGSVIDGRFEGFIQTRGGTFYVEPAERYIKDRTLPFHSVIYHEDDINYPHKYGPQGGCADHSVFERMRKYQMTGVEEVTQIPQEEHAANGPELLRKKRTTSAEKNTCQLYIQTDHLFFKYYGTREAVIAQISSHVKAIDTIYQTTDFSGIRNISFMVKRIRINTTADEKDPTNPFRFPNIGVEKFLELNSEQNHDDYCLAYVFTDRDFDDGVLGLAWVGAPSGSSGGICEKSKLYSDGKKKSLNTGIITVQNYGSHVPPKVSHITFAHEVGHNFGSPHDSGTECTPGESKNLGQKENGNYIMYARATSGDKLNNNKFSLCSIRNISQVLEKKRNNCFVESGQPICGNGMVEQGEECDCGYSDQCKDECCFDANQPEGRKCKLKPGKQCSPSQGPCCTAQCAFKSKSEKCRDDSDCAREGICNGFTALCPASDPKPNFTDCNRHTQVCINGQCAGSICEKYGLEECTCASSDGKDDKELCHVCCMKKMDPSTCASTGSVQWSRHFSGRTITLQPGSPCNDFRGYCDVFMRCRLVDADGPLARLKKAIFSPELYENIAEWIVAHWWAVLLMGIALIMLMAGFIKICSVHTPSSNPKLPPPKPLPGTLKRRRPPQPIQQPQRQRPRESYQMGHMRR
UniProt Q86TM6: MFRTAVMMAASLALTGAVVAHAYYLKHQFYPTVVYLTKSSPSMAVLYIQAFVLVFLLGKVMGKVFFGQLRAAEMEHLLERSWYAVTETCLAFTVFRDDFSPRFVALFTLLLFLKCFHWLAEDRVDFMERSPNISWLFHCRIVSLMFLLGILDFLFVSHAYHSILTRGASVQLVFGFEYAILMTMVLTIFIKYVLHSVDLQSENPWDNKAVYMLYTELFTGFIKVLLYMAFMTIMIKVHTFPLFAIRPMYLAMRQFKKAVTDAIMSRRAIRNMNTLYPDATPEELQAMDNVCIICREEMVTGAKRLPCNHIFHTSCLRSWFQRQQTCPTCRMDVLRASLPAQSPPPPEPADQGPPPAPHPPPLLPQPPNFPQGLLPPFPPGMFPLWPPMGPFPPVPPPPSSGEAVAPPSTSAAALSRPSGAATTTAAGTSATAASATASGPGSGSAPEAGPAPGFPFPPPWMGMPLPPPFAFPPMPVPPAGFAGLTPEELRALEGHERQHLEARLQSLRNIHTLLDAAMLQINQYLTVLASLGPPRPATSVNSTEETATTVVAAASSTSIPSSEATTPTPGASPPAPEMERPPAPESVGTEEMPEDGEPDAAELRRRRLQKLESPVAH

Target: unglycosylated precursor ADAM10 (unglycosylated preADAM10), endogenous (human (endogenous in SK-BR-3)) (UniProt O14672)
Assay: co-IP; co-IP of endogenous HRD1 and ADAM10 in SK-BR-3-shDPAGT1#1 cells treated with MG132

binding: binds
Substance: synoviolin 1 (SYVN1, also known as HRD1) (from UniProt Q86TM6 1-617) (enzyme)
